Results are given in words; binding and its absence hold for the method and conditions named.
Molecular target: T1, recombinant wild-type phosphoglycerate kinase 1 (PGK1) (human), P00558
T1 chain: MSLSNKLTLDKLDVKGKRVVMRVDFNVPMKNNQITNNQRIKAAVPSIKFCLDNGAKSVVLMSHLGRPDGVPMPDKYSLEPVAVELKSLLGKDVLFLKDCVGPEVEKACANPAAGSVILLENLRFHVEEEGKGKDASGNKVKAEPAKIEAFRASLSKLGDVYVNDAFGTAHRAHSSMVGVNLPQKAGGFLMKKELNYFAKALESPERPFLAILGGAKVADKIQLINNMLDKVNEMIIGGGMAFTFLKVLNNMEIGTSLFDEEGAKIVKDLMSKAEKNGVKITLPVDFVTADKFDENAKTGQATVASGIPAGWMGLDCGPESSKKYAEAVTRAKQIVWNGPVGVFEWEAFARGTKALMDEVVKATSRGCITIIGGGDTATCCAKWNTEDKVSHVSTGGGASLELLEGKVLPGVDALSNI
Test: SEC; analytical gel filtration on Superose 12 HR 10/30 in buffer A (20 mM Tris-HCl pH 8.0, 1 mM EDTA, 2 mM β-mercaptoethanol); 100 µl at 0.1 mg/ml; calibrated with aldolase, albumin, ovoalbumin, chimotrysinogen, ribonuclease; compared with 12% SDS-PAGE; both purified
Settings: remark: other sources report otherwise

- binding: no binding (tested: 0.1 mg/ml)
B1: recombinant wild-type phosphoglycerate kinase 1 (PGK1), P00558-1 1-417 (enzyme)
chain: T1 chain

Reference: article PMC3279470
